Results from paper PMC1838920.
No constants are given. Whether binding was seen depends on the method and setting. Some results given as binding are weak or reduced against the parent protein; the word gives no strength. For some of these results: Tags and fused reporters may be left off the sequences shown.

Amino acid sequences for entries named in this document (tags omitted).
UniProt P0AAI3: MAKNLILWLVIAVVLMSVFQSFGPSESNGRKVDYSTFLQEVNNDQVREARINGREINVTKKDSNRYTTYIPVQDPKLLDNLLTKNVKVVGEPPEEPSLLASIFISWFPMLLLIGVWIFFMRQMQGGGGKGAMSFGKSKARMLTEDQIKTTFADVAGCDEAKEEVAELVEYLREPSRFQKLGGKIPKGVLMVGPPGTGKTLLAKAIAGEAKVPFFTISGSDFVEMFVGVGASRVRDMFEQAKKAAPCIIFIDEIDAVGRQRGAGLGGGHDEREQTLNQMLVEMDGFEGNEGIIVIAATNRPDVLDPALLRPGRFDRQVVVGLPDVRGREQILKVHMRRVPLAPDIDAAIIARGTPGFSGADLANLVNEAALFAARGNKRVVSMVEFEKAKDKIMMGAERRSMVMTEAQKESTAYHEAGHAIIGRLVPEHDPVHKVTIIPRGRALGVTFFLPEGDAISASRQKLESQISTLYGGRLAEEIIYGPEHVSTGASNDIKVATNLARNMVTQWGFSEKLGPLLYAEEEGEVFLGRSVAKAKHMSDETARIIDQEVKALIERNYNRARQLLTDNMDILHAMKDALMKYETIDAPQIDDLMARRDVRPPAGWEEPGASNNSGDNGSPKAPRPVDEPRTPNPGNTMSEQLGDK

How the values were obtained:
[1] = biological target: CIII R32A (bacteriophage lambda) (UniProt P03044); test: electrophoresis; oligomers of CIII mutants and wild type CIII seen by electrophoresis; data not shown
[2] = biological target: CIII R27A (bacteriophage lambda) (UniProt P03044); test: as above
[3] = biological target: T1, His6-CIII (bacteriophage lambda CIII) (bacteriophage lambda), P03044; test: SDS electrophoresis with western blot; different concentrations of purified His6-CIII on 4-12% NuPAGE, western blot with antibodies against the His6 tag; oligomers partially resist SDS; both purified; conditions: remark: other sources report otherwise
T1 chain: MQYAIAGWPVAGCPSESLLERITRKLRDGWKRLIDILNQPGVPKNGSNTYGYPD

[4] = biological target: T1, His6-CIII (bacteriophage lambda CIII) …; test: electrophoresis; oligomers of CIII mutants and wild type CIII seen by electrophoresis; data not shown; conditions: remark: other sources report otherwise
[5] = biological target: T2, CIII made in cells following λ infection (bacteriophage lambda), P03044; test: electrophoresis; electrophoresis of cells following λ infection; data not shown; conditions: remark: other sources report otherwise
T2 chain: T1 chain

GST-FtsH (E. coli) = GST-FtsH (E. coli) (UniProt P0AAI3); test: cross-linking; 4 µM CII, 1 µM GST-FtsH, CIII in different concentrations, 0.1 mg/ml BSA in PBS, with or without 10 mM AMP-PNP (no nucleotide dependence), 5 minutes at 42°C, then 0.25% glutaraldehyde 2 minutes, stopped by 200 mM glycine; western blot with antibodies against CII; both purified

**Q.** How did the binding [1] turn out when CIII R32A (from UniProt P03044 1-54) was run?
**A.** The binding was “binds”.

**Q.** CIII R27A (from UniProt P03044 1-54) was tested. Which binding [2] did it give?
**A.** Its binding is “binds”.

B1: His6-CIII (bacteriophage lambda CIII), P03044 1-54 (natural protein)
chain: T1 chain
**Q.** With B1 as the molecule, how does the binding [3] read?
**A.** Its binding is “binds”.

**Q.** And the binding [4]?
**A.** The binding was “binds”.

B2: CIII made in cells following λ infection, P03044 1-54 (protein)
chain: T1 chain
**Q.** For B2, which binding [5] is on record?
**A.** Its binding is “binds”.

B3: His6-CIII (bacteriophage lambda CIII) (protein, UniProt P03044 1-54)
chain: T1 chain
**Q.** For B3, which binding (GST-FtsH (E. coli)) is on record?
**A.** The binding was “binds”.

B4: CII (bacteriophage lambda CII transcriptional activator) (protein, UniProt P03042 1-97)
chain: MVRANKRNEALRIESALLNKIAMLGTEKTAEAVGVDKSQISRWKRDWIPKFSMLLAVLEWGVVDDDMARLARQVAAILTNKKRPAATERSEQIQMEF
**Q.** With B4 as the molecule, how does the binding (GST-FtsH (E. coli)) read?
**A.** The binding was “binds”.
